According to the supplement of paper PMC7666118:
The list shows a part of the results.

Protein sequences, listed by entry. Tags and fused reporters are not part of them. Lines headed by an entry give the natural chain unless they say otherwise; changes in a name come on top.
UniProt P11388: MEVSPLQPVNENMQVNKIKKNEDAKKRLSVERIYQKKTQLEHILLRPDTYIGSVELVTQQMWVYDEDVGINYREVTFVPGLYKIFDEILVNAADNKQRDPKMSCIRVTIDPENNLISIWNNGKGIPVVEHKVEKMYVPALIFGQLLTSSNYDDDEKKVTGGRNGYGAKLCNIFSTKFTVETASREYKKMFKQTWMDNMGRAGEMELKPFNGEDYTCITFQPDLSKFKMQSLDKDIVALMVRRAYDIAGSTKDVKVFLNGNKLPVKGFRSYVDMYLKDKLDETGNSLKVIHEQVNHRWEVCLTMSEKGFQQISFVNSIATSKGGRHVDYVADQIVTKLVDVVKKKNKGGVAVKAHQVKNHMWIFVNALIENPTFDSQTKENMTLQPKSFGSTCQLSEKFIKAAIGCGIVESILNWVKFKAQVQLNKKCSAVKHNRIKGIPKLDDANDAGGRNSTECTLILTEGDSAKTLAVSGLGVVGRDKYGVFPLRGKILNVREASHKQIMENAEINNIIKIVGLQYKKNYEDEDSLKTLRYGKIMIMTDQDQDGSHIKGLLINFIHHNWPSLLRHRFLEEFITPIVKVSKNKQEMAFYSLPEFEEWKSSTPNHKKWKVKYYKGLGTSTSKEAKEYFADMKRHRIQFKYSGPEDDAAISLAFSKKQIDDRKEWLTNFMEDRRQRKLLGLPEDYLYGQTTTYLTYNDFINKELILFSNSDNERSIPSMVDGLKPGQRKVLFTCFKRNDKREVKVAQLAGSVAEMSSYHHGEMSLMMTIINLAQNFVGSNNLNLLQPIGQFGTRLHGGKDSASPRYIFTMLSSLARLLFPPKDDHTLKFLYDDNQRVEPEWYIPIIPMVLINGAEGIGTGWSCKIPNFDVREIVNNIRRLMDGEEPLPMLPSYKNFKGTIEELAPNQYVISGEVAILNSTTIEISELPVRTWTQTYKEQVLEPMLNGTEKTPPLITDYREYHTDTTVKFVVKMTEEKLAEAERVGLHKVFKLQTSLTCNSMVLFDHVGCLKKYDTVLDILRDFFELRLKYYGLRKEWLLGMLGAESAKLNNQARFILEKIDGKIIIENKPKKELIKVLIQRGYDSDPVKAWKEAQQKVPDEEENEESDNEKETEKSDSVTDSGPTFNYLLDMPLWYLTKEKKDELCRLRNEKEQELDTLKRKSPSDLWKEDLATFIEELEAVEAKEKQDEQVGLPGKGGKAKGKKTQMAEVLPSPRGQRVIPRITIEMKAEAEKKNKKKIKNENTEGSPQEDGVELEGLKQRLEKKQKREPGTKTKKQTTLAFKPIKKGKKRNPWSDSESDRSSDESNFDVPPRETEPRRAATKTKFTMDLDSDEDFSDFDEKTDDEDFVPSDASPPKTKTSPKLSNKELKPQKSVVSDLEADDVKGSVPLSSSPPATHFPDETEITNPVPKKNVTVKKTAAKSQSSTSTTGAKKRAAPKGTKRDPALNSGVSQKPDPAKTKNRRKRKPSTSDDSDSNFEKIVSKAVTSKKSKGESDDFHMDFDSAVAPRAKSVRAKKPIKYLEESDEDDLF
UniProt Q86UB9: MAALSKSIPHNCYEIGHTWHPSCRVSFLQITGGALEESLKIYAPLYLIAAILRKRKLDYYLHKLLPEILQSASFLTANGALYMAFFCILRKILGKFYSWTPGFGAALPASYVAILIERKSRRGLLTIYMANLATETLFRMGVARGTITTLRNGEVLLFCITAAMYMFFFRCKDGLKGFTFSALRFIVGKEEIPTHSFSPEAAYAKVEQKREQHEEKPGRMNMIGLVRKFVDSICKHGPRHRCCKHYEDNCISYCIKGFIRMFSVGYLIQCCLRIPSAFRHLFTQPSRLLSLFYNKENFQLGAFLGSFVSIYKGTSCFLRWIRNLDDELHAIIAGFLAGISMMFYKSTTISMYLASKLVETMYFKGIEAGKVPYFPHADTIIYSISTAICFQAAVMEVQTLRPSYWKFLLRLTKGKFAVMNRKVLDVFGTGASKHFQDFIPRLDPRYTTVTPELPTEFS
UniProt Q9UL33, whole entry: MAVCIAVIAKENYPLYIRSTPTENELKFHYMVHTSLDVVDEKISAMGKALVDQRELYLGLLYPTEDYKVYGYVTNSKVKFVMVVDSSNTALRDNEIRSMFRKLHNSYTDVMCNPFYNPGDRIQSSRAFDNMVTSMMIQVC
UniProt P10155: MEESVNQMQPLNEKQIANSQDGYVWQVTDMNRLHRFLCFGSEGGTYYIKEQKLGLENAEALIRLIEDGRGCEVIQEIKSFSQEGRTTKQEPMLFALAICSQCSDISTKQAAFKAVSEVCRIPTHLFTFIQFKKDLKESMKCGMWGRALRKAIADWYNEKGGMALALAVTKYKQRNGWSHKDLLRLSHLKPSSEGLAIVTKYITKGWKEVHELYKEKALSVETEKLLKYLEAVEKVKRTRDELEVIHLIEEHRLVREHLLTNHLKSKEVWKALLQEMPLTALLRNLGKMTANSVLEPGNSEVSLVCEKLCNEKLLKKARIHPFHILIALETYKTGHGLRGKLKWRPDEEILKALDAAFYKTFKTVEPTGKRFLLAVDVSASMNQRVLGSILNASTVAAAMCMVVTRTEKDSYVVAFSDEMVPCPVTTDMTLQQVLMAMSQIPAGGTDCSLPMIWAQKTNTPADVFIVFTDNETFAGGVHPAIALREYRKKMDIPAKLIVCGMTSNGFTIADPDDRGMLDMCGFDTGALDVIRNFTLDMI
UniProt Q5JTD0: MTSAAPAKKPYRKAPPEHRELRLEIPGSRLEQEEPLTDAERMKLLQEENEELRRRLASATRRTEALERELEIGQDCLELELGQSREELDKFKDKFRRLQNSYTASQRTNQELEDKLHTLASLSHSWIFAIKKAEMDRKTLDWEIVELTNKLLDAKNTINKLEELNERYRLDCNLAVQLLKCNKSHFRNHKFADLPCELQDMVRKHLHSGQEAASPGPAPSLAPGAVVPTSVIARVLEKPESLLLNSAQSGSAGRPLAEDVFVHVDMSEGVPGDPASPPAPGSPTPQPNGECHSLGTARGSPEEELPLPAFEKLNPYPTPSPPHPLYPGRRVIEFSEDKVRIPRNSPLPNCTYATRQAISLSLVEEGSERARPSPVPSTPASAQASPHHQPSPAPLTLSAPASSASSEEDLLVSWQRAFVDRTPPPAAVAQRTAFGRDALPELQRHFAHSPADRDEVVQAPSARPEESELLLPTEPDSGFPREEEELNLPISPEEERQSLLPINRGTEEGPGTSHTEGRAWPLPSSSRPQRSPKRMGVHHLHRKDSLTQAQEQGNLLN
UniProt Q7Z4G4: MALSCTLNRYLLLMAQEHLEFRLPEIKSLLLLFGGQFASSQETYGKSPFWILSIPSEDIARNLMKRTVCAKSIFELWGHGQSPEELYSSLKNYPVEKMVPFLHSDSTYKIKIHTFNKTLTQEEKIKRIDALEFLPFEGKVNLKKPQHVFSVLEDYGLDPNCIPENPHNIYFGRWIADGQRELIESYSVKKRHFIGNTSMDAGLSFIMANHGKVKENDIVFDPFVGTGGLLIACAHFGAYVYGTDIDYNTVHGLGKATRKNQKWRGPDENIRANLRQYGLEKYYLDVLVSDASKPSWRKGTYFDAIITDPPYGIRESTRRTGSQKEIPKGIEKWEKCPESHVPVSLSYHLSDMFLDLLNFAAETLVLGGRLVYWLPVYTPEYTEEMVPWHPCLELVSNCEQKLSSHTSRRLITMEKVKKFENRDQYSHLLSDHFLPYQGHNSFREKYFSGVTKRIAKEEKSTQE
UniProt Q8NFZ5: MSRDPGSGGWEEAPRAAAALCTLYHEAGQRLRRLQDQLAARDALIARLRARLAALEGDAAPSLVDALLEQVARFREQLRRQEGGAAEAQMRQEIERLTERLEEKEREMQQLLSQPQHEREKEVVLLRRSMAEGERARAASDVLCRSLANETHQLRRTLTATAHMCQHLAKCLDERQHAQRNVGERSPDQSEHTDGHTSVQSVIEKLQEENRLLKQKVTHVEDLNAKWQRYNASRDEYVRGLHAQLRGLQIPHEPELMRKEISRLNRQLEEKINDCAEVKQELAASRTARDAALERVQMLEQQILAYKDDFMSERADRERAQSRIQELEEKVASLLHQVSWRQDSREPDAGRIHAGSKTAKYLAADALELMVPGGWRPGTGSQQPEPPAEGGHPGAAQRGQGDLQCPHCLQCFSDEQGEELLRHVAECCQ
UniProt O14763, whole entry: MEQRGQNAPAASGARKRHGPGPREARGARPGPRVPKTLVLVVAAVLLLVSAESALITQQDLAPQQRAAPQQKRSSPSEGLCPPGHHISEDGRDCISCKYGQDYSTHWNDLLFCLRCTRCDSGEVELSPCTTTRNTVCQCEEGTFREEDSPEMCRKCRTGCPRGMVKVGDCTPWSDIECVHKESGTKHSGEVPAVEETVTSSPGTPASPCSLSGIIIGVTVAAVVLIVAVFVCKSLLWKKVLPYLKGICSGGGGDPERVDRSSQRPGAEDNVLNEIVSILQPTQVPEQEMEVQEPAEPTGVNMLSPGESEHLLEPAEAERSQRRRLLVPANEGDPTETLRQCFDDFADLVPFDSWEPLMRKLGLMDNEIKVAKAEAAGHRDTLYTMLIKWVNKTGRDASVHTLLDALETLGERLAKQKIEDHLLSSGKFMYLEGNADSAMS
UniProt P11387: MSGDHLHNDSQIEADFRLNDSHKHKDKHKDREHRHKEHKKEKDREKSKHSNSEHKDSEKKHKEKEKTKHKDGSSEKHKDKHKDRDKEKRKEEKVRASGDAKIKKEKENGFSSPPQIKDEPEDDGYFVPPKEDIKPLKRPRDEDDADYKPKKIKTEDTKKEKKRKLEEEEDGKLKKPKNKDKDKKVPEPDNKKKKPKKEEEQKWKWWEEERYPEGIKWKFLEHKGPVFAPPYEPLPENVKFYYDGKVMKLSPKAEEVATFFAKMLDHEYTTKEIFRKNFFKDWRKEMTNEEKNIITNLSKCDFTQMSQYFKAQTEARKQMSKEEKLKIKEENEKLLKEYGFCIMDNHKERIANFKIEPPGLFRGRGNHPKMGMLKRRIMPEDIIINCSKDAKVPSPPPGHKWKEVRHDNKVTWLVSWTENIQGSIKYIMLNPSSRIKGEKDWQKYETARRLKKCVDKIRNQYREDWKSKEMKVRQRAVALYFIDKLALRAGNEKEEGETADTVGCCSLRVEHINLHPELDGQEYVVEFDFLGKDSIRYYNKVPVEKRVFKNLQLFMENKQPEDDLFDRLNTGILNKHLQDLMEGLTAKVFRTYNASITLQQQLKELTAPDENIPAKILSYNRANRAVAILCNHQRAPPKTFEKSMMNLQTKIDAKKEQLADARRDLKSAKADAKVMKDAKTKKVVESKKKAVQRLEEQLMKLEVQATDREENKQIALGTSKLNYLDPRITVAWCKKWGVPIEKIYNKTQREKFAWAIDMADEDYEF
UniProt O60858: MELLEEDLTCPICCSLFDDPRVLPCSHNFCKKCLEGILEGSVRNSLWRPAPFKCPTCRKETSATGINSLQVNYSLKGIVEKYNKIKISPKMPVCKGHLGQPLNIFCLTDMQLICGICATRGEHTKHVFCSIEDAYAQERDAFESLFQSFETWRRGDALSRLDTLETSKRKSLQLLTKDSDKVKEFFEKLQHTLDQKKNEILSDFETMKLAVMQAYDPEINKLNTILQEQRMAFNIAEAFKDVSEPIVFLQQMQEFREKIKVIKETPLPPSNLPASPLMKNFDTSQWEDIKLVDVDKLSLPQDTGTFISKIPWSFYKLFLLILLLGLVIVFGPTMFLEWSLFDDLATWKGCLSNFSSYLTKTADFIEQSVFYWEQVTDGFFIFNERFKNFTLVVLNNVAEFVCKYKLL
UniProt Q9NUM4, whole entry: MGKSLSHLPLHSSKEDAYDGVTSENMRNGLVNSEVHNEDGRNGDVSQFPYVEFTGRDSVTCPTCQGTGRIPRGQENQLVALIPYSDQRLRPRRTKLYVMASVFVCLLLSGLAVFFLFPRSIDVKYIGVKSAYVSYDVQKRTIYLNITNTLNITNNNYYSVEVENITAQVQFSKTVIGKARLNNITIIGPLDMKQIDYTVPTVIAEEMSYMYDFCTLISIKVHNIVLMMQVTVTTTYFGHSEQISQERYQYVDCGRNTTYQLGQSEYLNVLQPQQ
UniProt O14657: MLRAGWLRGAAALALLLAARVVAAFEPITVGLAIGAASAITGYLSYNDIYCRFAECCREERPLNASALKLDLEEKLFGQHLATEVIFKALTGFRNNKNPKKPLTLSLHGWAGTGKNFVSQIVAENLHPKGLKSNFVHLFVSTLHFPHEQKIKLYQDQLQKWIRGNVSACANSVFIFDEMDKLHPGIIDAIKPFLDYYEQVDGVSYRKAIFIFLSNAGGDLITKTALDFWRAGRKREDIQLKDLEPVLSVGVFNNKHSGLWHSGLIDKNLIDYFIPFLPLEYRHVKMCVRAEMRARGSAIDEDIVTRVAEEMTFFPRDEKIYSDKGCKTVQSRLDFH
UniProt Q9Y296, whole entry: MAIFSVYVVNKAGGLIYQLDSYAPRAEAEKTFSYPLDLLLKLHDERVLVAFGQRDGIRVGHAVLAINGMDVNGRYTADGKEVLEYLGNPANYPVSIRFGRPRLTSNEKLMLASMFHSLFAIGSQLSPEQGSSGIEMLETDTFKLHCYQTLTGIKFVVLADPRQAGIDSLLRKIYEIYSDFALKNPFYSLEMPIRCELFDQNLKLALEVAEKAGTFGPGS

Compound: COc1ccc(Cn2ccc3cc(C)c(C(=O)NO)cc32)cc1
Experiment: dose-dependent thermal stabilisation call (2D-TPP, DLPTP, 10% FDR) (binary (1 = stabilised)); higher = stabilised by the compound
Details: system: HL-60 intact cells; concentration range 0.04-10 µM
Procedure: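 2D thermal proteome profiling in intact HL-60 cells treated with BRD-3811 (0, 0.04, 0.29, 2, 10 uM) for 90 min at 37 C, then heated 3 min at one of 12 temperatures (42-63.9 C). Soluble protein was quantified by TMT10 MS. The value is the DLPTP call of the paper: dose-dependent thermal stabilisation over all temperatures at 10% FDR (F-test of a dose-response against a flat model); one experiment, one call per tested protein.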

How did the “dose-dependent thermal stabilisation call” value turn out when TOP2A (UniProt P11388) was run?
Its value is inactive: 0.

TMEM135 (UniProt Q86UB9) was tested. Which “dose-dependent thermal stabilisation call” value did it give?
Its value is inactive: 0.

With TRIM24 (UniProt O15164) as the target, how does the “dose-dependent thermal stabilisation call” value read?
Its value is inactive: 0.

TMEM186 (UniProt Q96B77) was tested. Which “dose-dependent thermal stabilisation call” value did it give?
Its value is inactive: 0.

How did the “dose-dependent thermal stabilisation call” value turn out when TRAPPC2L (UniProt Q9UL33) was run?
Its value is inactive: 0.

With TMSB10 (UniProt P63313) as the target, how does the “dose-dependent thermal stabilisation call” value read?
The value was inactive: 0.

Which “dose-dependent thermal stabilisation call” value does the source give for TROVE2 (UniProt P10155) here?
The value was inactive: 0.

For TM9SF3 (UniProt Q9HD45), which “dose-dependent thermal stabilisation call” value is on record?
The value was inactive: 0.

How did the “dose-dependent thermal stabilisation call” value turn out when TP53RK (UniProt Q96S44) was run?
Its value is inactive: 0.

For TMEM55B (UniProt Q86T03), which “dose-dependent thermal stabilisation call” value is on record?
Its value is inactive: 0.

For TMEM77 (UniProt Q6UX65), which “dose-dependent thermal stabilisation call” value is on record?
The value was inactive: 0.

For TOMM70A (UniProt O94826), which “dose-dependent thermal stabilisation call” value is on record?
Its value is inactive: 0.

Which “dose-dependent thermal stabilisation call” value does the source give for TJAP1 (UniProt Q5JTD0) here?
Its value is inactive: 0.

Which “dose-dependent thermal stabilisation call” value does the source give for TRMT11 (UniProt Q7Z4G4) here?
Its value is inactive: 0.

TSEN2 (UniProt Q8NCE0) was tested. Which “dose-dependent thermal stabilisation call” value did it give?
The value was inactive: 0.

Which “dose-dependent thermal stabilisation call” value does the source give for TNIP2 (UniProt Q8NFZ5) here?
The value was inactive: 0.

Which “dose-dependent thermal stabilisation call” value does the source give for TOM1 (UniProt O60784) here?
Its value is inactive: 0.

How did the “dose-dependent thermal stabilisation call” value turn out when TMC6 (UniProt Q7Z403) was run?
The value was inactive: 0.

For TOP3B (UniProt O95985), which “dose-dependent thermal stabilisation call” value is on record?
Its value is inactive: 0.

With TSPAN14 (UniProt Q8NG11) as the target, how does the “dose-dependent thermal stabilisation call” value read?
The value was inactive: 0.

How did the “dose-dependent thermal stabilisation call” value turn out when TOE1 (UniProt Q96GM8) was run?
The value was inactive: 0.

For TMOD2 (UniProt Q9NZR1), which “dose-dependent thermal stabilisation call” value is on record?
Its value is inactive: 0.

For TMEM160 (UniProt Q9NX00), which “dose-dependent thermal stabilisation call” value is on record?
Its value is inactive: 0.

For TMEM65 (UniProt Q6PI78), which “dose-dependent thermal stabilisation call” value is on record?
The value was inactive: 0.

How did the “dose-dependent thermal stabilisation call” value turn out when TNFRSF10B (UniProt O14763) was run?
Its value is inactive: 0.

How did the “dose-dependent thermal stabilisation call” value turn out when TMEM141 (UniProt Q96I45) was run?
The value was inactive: 0.

How did the “dose-dependent thermal stabilisation call” value turn out when TSPAN3 (UniProt O60637) was run?
The value was inactive: 0.

TNIK (UniProt Q9UKE5) was tested. Which “dose-dependent thermal stabilisation call” value did it give?
The value was inactive: 0.

TOP1 (UniProt P11387) was tested. Which “dose-dependent thermal stabilisation call” value did it give?
Its value is inactive: 0.

How did the “dose-dependent thermal stabilisation call” value turn out when TRIM13 (UniProt O60858) was run?
Its value is inactive: 0.

Which “dose-dependent thermal stabilisation call” value does the source give for TMEM106B (UniProt Q9NUM4) here?
Its value is inactive: 0.

How did the “dose-dependent thermal stabilisation call” value turn out when TLK2 (UniProt Q86UE8) was run?
Its value is inactive: 0.

With TLE3 (UniProt Q04726) as the target, how does the “dose-dependent thermal stabilisation call” value read?
The value was inactive: 0.

Which “dose-dependent thermal stabilisation call” value does the source give for TMEM126A (UniProt Q9H061) here?
The value was inactive: 0.

For TMEM194A (UniProt O14524), which “dose-dependent thermal stabilisation call” value is on record?
Its value is inactive: 0.

Which “dose-dependent thermal stabilisation call” value does the source give for TOR1B (UniProt O14657) here?
Its value is inactive: 0.

Which “dose-dependent thermal stabilisation call” value does the source give for TMEM49 (UniProt Q96GC9) here?
Its value is inactive: 0.

Which “dose-dependent thermal stabilisation call” value does the source give for TRAPPC4 (UniProt Q9Y296) here?
Its value is inactive: 0.

Which “dose-dependent thermal stabilisation call” value does the source give for TNPO2 (UniProt O14787) here?
Its value is inactive: 0.

Which “dose-dependent thermal stabilisation call” value does the source give for TRIM56 (UniProt Q9BRZ2) here?
The value was inactive: 0.
